# Experimental data from the supplement of paper PMC7752906.
# Structures can show the parent of a compound that is named as a salt. The list shows a part of the results. Repeats in this data set agree poorly, so a single value says little.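 About 40 Schistosoma mansoni schistosomula per well were imaged over time in bright field and compared with 0.1% DMSO wells. A drug counts as a hit if its Mahalanobis distance reaches 2.47 or more, three standard deviations above the DMSO control mean. Degeneracy is the fraction of worms scored opaque.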
# System: Schistosoma mansoni schistosomula
# Experiment: Mahalanobis distance of static-rate-frequency phenotype descriptors from DMSO controls (dimensionless); higher = stronger phenotypic change versus DMSO
# Conditions: 10 µM; 72 h
row,SMILES,Mahalanobis distance
1,O=C1CCc2ccc(OCCCCN3CCN(c4cccc(Cl)c4Cl)CC3)cc2N1 [aripiprazole],inactive: 1.83
2,CN(C)CCOC(c1ccc(Cl)cc1)c1ccccn1 (stereo not drawn) [Carbinoxamine],inactive: 1.38
3,Cc1ccccc1C(OCCN(C)C)c1ccccc1 (stereo not drawn) [Orphenadrine],active: 2.78
4,CN1CCN(c2c(F)cc3c(=O)c(C(=O)O)cn4c3c2SCC4)CC1 [Rufloxacin Hydrochloride],inactive: 2.09
5,COC(=O)C1=C(C)NC(C)=C(C(=O)OCCN(C)Cc2ccccc2)C1c1cccc([N+](=O)[O-])c1 (stereo not drawn) [nicardipine],active: 2.63
6,COC(=O)C1=C(C)NC(C)=C(C(=O)OCC(C)C)C1c1ccccc1[N+](=O)[O-] (stereo not drawn) [Nisoldipine],inactive: 1.93
7,CC(O)(P(=O)(O)O)P(=O)(O)O [Etidronate Disodium],inactive: 1.57
8,O=C1[C@H](CC[C@H](O)c2ccc(F)cc2)[C@@H](c2ccc(O)cc2)N1c1ccc(F)cc1 [Ezetimibe],inactive: 1.99
9,O=S(=O)(O)c1cc(I)c(O)c2ncccc12 [Chiniofon],inactive: 1.26
10,O=C(O)COCCN1CCN([C@H](c2ccccc2)c2ccc(Cl)cc2)CC1 [Levocetirizine Dihydrochloride],active: 2.64
11,CN1CCC(=C2c3ccccc3CCc3sccc32)CC1 [Pizotyline Malate],active: 2.77
12,CN1CCOC(c2ccccc2)c2ccccc2C1 (stereo not drawn) [Nefopam],active: 4.07
13,CCCCCOC(=O)Nc1nc(=O)n([C@@H]2O[C@H](C)[C@@H](O)[C@H]2O)cc1F [Capecitabine],active: 2.47
14,CCCCNc1ccc(C(=O)OCCN(C)C)cc1 [Tetracaine],active: 3.19
15,CCN(CC)CCOc1ccc(C(=C(Cl)c2ccccc2)c2ccccc2)cc1 [clomiphene],inactive: 2.17
16,O=C(O)C1(C(=O)O)CCC1.[NH2-].[NH2-].[Pt+2] [Carboplatin],inactive: 1.9
17,Cc1cnc(C(=O)O)c[n+]1[O-] [Acipimox],inactive: 1.51

# 3 of the compounds above, with bars between the fields.
row | SMILES | Mahalanobis distance
13 | CCCCCOC(=O)Nc1nc(=O)n([C@@H]2O[C@H](C)[C@@H](O)[C@H]2O)cc1F [Capecitabine] | active: 2.47
14 | CCCCNc1ccc(C(=O)OCCN(C)C)cc1 [Tetracaine] | active: 3.19
15 | CCN(CC)CCOc1ccc(C(=C(Cl)c2ccccc2)c2ccccc2)cc1 [clomiphene] | inactive: 2.17

# More entries:

row,SMILES,Mahalanobis distance
1,CC(=O)Nc1cccc(O)c1 [3-acetamidophenol],inactive: 1.25
2,CC1CCCC(C)N1 (stereo not drawn) [Nanofin],active: 2.52
3,COc1ccc(C(=O)c2ccccc2O)c(O)c1 [Dioxybenzone],inactive: 2.27
4,COc1ccc(CN2CCN(C(c3ccc(F)cc3)c3ccc(F)cc3)CC2)c(OC)c1OC [lomerizine],active: 4.64
5,OCc1ccccn1 [Piconol],inactive: 1.44
6,O=C(O)c1ccccc1 [Benzoic Acid],inactive: 1.54
7,CCCCC[C@H](O)/C=C/[C@H]1[C@H](O)CC(=O)[C@@H]1CCCCCCC(=O)O [Alprostadil],inactive: 1.83
8,CC(=O)Nc1ccc(C(=O)O)cc1 [Acedoben],inactive: 1.74
9,COc1cc2ncnc(Nc3ccc(F)c(Cl)c3)c2cc1OCCCN1CCOCC1 [Gefitinib],inactive: 2.38
10,CCOc1ccc(NC(C)=O)cc1 [Phenacetin],active: 2.86
11,CC(C)(C)NCC(O)c1cc(O)cc(O)c1 (stereo not drawn) [Terbutaline],inactive: 1.92
12,C=C(c1ccc(C(=O)O)cc1)c1cc2c(cc1C)C(C)(C)CCC2(C)C [Bexarotene],inactive: 1.36
13,C#C[C@]1(O)CC[C@H]2[C@@H]3CCC4=C(CCC(=O)C4)[C@H]3CC[C@@]21C [Norethynodrel],active: 3.51
14,CC/C(=C(\c1ccccc1)c1ccc(OCCN(C)C)cc1)c1ccccc1 [tamoxifen],inactive: 2.45
15,CN[C@@H]1[C@H](O[C@H]2[C@H](O[C@H]3[C@H](O)[C@@H](O)[C@H](NC(=N)N)[C@@H](O)[C@@H]3NC(=N)N)O[C@@H](C)[C@]2(O)CO)O[C@@H](CO)[C@H](O)[C@H]1O [Dihydrostreptomycin Sulfate],inactive: 2.18
16,NCc1ccc(S(N)(=O)=O)cc1 [Mafenide Hydrochloride],inactive: 2.36
